Results from patent US10106538B2, “Inhibitors of protein kinases” (PRINCETON DRUG DISCOVERY INC, priority 2015, dated 2018).
Some results were stated once for a whole list of compounds, not compound by compound.

Sequences of proteins named here, by UniProt entry; tags and fusion partners are left off.
UniProt Q13882, whole entry: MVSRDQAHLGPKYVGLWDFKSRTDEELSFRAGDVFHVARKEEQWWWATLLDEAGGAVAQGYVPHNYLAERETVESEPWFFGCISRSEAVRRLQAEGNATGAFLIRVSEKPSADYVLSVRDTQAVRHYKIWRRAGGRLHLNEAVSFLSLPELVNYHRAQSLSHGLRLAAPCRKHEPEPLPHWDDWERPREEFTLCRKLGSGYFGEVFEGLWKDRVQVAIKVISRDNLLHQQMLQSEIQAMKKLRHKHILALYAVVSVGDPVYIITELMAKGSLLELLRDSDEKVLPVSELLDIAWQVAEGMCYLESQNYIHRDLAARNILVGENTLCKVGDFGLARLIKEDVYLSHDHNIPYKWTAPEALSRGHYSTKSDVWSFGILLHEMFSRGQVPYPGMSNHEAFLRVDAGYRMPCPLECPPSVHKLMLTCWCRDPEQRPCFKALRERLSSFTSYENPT

Biological target: T1, BRK (Homo sapiens, UniProt Q13882)
T1 construct: purchased Carna Biosciences
Assay: Off-chip Mobility Shift Assay (MSA) kinase inhibition
Type: biochemical
Settings: low nM activity
Procedure: Off-chip Mobility Shift Assay (MSA) by Cama Biosciences, Inc (Natick, Mass.) a used for measuring the kinase activity and inhibition. • 1) The 5 μL of x4 compound solution, 5 μL of x4 Substrate/ATP/Metal solution, and 10 μL of x2 kinase solution were prepared with assay buffer (20 mM HEPES, 0.01% Triton X100, 2 mM DTT, pH 7.5) and mixed and incubated in a well of polypropylene 384 well microplate for 1 or 5 hour(s)* at room temperature.

CC(=O)CS(=O)(=O)Nc1ccc(F)c(C(=O)c2c[nH]c3ncc(-c4ccc(Cl)cc4)cc23)c1F [200-117]
inhibition of Breast tumor related kinase (BRK): greater than 30%
